The results in this text go back to patent US8653285B2 (Nippon Zoki Pharmaceutical Co., Ltd., priority 2008, dated 2014).

The series in a line: Index ID50 (cerebral receptor binding test) divided by ED50 (vascular hyperpermeability test). The settings on record: ID50 of Table 11 divided by ED50 of Table 10.

Counter-ions that a name gives are not always drawn. Where only a bound is given, the exact number is not on record here.

In the case of `Cl.O=C(O)Cc1ccc2c(c1)/C(=C\CCN1CCCC1)c1sccc1CO2` [Compound 70, (E)-{4-[3-(Pyrrolidin-1-yl)propylidene]-4,10-dihydro-9-oxa-3-thiabenzo[f]azulen-6-yl}acetic acid hydrochloride], the “ID50 (mg/kg)/ ED50 (mg/kg)” value amounted to 122.4.

With `CN(C)CC/C=C1\c2cc(CC(=O)O)ccc2OCc2ccsc21` [Compound 19, (E)-[4-(3-Dimethylaminopropylidene)-4,10-dihydro-9-oxa-3-thiabenzo[f]azulen-6-yl]acetic acid], the “ID50 (mg/kg)/ ED50 (mg/kg)” value was 25.3.

Take `CN(C)CC/C=C1/c2ccccc2CCc2sc(CC(=O)O)cc21.Cl` [Compound 18, (Z)-[4-(3-Dimethylaminopropylidene)-9,10-dihydro-4H-1-thiabenzo[f]azulen-2-yl]acetic acid hydrochloride]: the “ID50 (mg/kg)/ ED50 (mg/kg)” value came out at 33.3.

In the case of `CCOC(=O)C(C)(C)c1cc2c(s1)C(=O)Cc1ccccc1C2=CCCN(C)C` [Compound 24, Ethyl (E,Z)-2-[4-(3-dimethylaminopropylidene)-10-oxo-9,10-dihydro-4H-1-thiabenzo[f]azulen-2-yl]-2-methylpropionate hydrochloride], the “ID50 (mg/kg)/ ED50 (mg/kg)” value was found to be 174.0.

`O=C(O)Cc1ccc2c(c1)/C(=C/CCN1CCCCC1)c1sccc1CO2` [Compound 35, (Z)-{4-[3-(Piperidin-1-yl)propylidene]-4,10-dihydro-9-oxa-3-thiabenzo[f]azulen-6-yl}acetic acid]: the “ID50 (mg/kg)/ ED50 (mg/kg)” value was 657.0.

For the compound `O=C(O)Cc1ccc2c(c1)/C(=C\CCN1CCCC1)c1sccc1CO2` [Compound 26, (E)-{4-[3-(Pyrrolidin-1-yl)propylidene]-4,10-dihydro-9-oxa-3-thiabenzo[f]azulen-6-yl}acetic acid], the “ID50 (mg/kg)/ ED50 (mg/kg)” value was 518.6.

For `O=C(O)CCc1ccc2c(c1)/C(=C/CCN1CCCC1)c1ccsc1CO2` [Compound 59, (Z)-3-{4-[3-(Pyrrolidin-1-yl)propylidene]-4,10-dihydro-9-oxa-1-thiabenzo[f]azulen-6-yl}propionic acid], the “ID50 (mg/kg)/ ED50 (mg/kg)” value is given as greater than 666.7.

Turning to `CNCC/C=C1\c2cc(C(C)(C)C(=O)O)ccc2OCc2ccsc21` [Compound 25, (E)-{2-Methyl-2-[4-(3-methylaminopropylidene)-4,10-dihydro-9-oxa-3-thiabenzo [f]azulen-6-yl]}propionic acid], the “ID50 (mg/kg)/ ED50 (mg/kg)” value is listed as greater than 35.1.

Consider `CN(C)CC/C=C1/c2ccccc2CCc2sc(C(=O)O)cc21` [Compound 16, (Z)-[4-(3-Dimethylaminopropylidene)-9,10-dihydro-4H-1-thiabenzo[f]azulen-2-yl]carboxylic acid], for which the “ID50 (mg/kg)/ ED50 (mg/kg)” value is 153.2.

On to `CN(C)CC/C=C1/c2cc(CC(=O)O)ccc2OCc2ccsc21` [Compound 20, (Z)-[4-(3-Dimethylaminopropylidene)-4,10-dihydro-9-oxa-3-thiabenzo[f]azulen-6-yl]acetic acid], for which the “ID50 (mg/kg)/ ED50 (mg/kg)” value was determined as 242.9.

Take `CN(C)CC/C=C1/c2cc(CC(=O)O)ccc2OCc2sccc21` [Compound 28, (Z)-[4-(3-Dimethylaminopropylidene)-4,10-dihydro-9-oxa-1-thiabenzo[f]azulen-6-yl]acetic acid]: the “ID50 (mg/kg)/ ED50 (mg/kg)” value is greater than 58.5.

For `Cl.O=C(O)Cc1ccc2c(c1)/C(=C/CCN1CCCC1)c1sccc1CO2` [Compound 71, (Z)-{4-[3-(Pyrrolidin-1-yl)propylidene]-4,10-dihydro-9-oxa-3-thiabenzo[f]azulen-6-yl}acetic acid hydrochloride], the “ID50 (mg/kg)/ ED50 (mg/kg)” value is greater than 96.4.

Take `O=C(O)Cc1ccc2c(c1)/C(=C/CCN1CCCC1)c1sccc1CO2` [Compound 27, (Z)-{4-[3-(Pyrrolidin-1-yl)propylidene]-4,10-dihydro-9-oxa-3-thiabenzo[f]azulen-6-yl}acetic acid]: the “ID50 (mg/kg)/ ED50 (mg/kg)” value was greater than 885.

With `CN(C)CCC=C1c2cc(C(C)(C)C(=O)O)ccc2OCc2ccsc21` [Compound 22, (E,Z)-2-[4-(3-Dimethylaminopropylidene)-4,10-dihydro-9-oxa-3-thiabenzo[f]azulen-6-yl]-2-methylpropionic acid], the “ID50 (mg/kg)/ ED50 (mg/kg)” value worked out at 18.7.

With `CN(C)CC/C=C1/c2cc(CCC(=O)O)ccc2OCc2sccc21.Cl` [Compound 57, (Z)-3-[4-(3-Dimethylaminopropylidene)-4,10-dihydro-9-oxa-1-thiabenzo[f]azulen-6-yl]propionic acid hydrochloride], the “ID50 (mg/kg)/ ED50 (mg/kg)” value is greater than 800.

Turning to `O=C(O)Cc1ccc2c(c1)/C(=C/CCN1CCOCC1)c1sccc1CO2` [Compound 33, (Z)-{4-[3-(Morpholin-4-yl)propylidene]-4,10-dihydro-9-oxa-3-thiabenzo[f]azulen-6-yl}acetic acid], the “ID50 (mg/kg)/ ED50 (mg/kg)” value turned out to be 70.3.

Regarding `O=C(O)CCc1ccc2c(c1)/C(=C\CCN1CCCC1)c1ccsc1CO2` [Compound 58, (E)-3-{4-[3-(Pyrrolidin-1-yl)propylidene]-4,10-dihydro-9-oxa-1-thiabenzo[f]azulen-6-yl}propionic acid], the “ID50 (mg/kg)/ ED50 (mg/kg)” value stood at 110.2.

For `CN1CCN(CC/C=C2\c3cc(CC(=O)O)ccc3OCc3ccsc32)CC1` [Compound 50, (E)-{4-[3-(4-Methylpiperadin-1-yl)propylidene]-4,10-dihydro-9-oxa-3-thiabenzo[f]azulen-6-yl}acetic acid], the “ID50 (mg/kg)/ ED50 (mg/kg)” value is reported as greater than 59.7.

`CN(C)CC/C=C1\c2cc(CC(=O)O)ccc2OCc2sccc21` [Compound 29, (E)-[4-(3-Dimethylaminopropylidene)-4,10-dihydro-9-oxa-1-thiabenzo[f]azulen-6-yl]acetic acid]: the “ID50 (mg/kg)/ ED50 (mg/kg)” value is given as greater than 237.

With `O=C(O)Cc1ccc2c(c1)/C(=C\CCN1CCCCC1)c1sccc1CO2` [Compound 34, (E)-{4-[3-(Piperidin-1-yl)propylidene]-4,10-dihydro-9-oxa-3-thiabenzo[f]azulen-6-yl}acetic Acid], the “ID50 (mg/kg)/ ED50 (mg/kg)” value was determined as 116.0.

As for `O=C(O)Cc1ccc2c(c1)/C(=C/CCNCc1ccccc1)c1sccc1CO2` [Compound 43, (Z)-[4-(3-Benzylaminopropylidene)-4,10-dihydro-9-oxa-3-thiabenzo[f]azulen-6-yl]acetic acid], the “ID50 (mg/kg)/ ED50 (mg/kg)” value was greater than 61.1.

In the case of `CCN(C)CC/C=C1\c2cc(CC(=O)O)ccc2OCc2ccsc21` [Compound 30], the “ID50 (mg/kg)/ ED50 (mg/kg)” value is listed as 316.7.
